Experimental data reported in publication doi:10.1101/2021.06.17.448807.
These are yes or no findings as the source states them, for the method shown. Binding seen in cells or lysates may run through a third protein. A yes stands for co-enrichment or nearness to the bait. Other partners may have been found.

Protein sequences, listed by entry. Tags and fused reporters are not part of them.
UniProt Q61584: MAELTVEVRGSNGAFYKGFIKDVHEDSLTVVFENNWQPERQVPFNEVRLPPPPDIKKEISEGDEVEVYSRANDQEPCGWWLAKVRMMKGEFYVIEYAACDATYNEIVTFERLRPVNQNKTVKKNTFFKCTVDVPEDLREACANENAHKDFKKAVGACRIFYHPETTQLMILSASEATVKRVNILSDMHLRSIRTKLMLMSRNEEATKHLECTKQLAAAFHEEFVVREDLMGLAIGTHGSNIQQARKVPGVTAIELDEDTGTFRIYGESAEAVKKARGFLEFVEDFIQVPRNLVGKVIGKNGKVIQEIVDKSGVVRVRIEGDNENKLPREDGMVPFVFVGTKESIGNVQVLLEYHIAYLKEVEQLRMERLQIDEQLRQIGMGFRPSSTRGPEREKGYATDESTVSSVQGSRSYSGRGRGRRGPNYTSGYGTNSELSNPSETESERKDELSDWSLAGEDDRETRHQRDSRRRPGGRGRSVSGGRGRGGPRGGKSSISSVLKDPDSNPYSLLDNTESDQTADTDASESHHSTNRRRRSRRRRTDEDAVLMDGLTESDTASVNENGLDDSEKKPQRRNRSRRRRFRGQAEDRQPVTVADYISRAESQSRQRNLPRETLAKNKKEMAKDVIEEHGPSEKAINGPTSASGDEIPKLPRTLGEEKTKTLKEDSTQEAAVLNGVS
UniProt O70133: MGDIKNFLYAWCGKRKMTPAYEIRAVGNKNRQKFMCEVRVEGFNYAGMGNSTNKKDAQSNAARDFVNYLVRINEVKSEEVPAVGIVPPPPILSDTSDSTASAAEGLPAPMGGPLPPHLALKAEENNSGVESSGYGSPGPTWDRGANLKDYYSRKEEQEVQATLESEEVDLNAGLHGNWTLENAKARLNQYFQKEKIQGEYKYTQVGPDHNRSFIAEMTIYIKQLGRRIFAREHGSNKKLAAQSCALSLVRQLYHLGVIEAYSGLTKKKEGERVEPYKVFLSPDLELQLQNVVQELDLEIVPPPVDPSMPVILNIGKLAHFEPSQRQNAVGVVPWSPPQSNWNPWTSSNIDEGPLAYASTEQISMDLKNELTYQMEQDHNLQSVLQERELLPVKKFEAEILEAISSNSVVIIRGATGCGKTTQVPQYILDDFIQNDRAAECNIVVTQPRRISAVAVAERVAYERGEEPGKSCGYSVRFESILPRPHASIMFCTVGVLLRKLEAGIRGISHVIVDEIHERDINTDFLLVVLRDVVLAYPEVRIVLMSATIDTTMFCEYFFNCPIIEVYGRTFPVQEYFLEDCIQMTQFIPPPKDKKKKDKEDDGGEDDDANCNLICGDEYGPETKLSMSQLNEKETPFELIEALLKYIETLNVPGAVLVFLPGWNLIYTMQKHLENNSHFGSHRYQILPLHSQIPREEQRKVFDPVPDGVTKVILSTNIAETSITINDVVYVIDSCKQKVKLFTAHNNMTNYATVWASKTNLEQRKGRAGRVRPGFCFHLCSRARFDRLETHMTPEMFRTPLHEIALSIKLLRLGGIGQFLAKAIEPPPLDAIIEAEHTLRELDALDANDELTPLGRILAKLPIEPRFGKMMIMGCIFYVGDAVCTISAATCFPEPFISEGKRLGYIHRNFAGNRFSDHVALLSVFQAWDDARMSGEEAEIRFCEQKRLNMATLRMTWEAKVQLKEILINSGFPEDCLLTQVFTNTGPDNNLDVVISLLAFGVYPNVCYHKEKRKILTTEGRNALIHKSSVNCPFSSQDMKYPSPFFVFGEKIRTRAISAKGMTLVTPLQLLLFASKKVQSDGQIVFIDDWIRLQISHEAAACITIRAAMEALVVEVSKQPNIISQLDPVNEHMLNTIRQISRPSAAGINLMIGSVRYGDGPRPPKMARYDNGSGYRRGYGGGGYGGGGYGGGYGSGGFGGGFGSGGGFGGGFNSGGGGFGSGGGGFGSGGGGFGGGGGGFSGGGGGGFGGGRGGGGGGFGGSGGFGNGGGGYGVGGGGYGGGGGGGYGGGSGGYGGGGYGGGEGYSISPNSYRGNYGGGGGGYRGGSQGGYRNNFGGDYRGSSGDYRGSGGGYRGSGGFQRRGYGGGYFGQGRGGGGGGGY

T1: Transcription factor-like 5 (mouse (endogenous in testis)) (UniProt Q32NY8)
T1 sequence: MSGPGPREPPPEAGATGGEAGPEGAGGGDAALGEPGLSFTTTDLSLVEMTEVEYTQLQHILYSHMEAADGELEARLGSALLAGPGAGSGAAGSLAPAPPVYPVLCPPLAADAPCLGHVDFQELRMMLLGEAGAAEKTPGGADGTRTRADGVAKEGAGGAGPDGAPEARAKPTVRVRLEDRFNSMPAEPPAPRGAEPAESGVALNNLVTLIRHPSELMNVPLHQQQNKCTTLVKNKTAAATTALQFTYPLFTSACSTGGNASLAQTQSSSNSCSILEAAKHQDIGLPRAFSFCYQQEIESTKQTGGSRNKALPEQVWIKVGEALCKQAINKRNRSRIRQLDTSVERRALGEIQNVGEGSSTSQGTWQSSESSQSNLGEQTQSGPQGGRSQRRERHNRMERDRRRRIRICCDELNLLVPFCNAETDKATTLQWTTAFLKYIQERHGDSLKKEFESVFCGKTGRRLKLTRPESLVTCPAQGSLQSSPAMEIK


The molecules below were run against T1, Transcription factor-like 5 (mouse (endogenous in testis)) (assay: affinity purification with mass spectrometry).

Row | binding | Molecule
1 | binds | fragile-X mental retardation syndrome-related protein 1 (from UniProt Q61584 1-677)
2 | binds | HnRNP K (from UniProt P61979 1-463)
3 | binds | DExH-box helicase 9 (from UniProt O70133 1-1380)

Target: T1, Transcription factor-like 5 (mouse (endogenous in testis))
Test: affinity purification with mass spectrometry
Remark: another data set of the same source

Row | binding | Molecule
4 | binds | SF3B1 (protein, UniProt Q99NB9 1-1304) MAKIAKTHEDIEAQIREIQGKKAALDEAQGVGLDSTGYYDQEIYGGSDSRFAGYVTSIAATELEDDDDDYSSSTSLLGQKKPGYHAPVALLNDIPQSTEQYDPFAEHRPPKIADREDEYKKHRRTMIISPERLDPFADGGKTPDPKMNARTYMDVMREQHLTKEEREIRQQLAEKAKAGELKVVNGAAASQPPSKRKRRWDQTADQTPGATPKKLSSWDQAETPGHTPSLRWDETPGRAKGSETPGATPGSKIWDPTPSHTPAGAATPGRGDTPGHATPGHGGATSSARKNRWDETPKTERDTPGHGSGWAETPRTDRGGDSIGETPTPGASKRKSRWDETPASQMGGSTPVLTPGKTPIGTPAMNMATPTPGHIMSMTPEQLQAWRWEREIDERNRPLSDEELDAMFPEGYKVLPPPAGYVPIRTPARKLTATPTPLGGMTGFHMQTEDRTMKSVNDQPSGNLPFLKPDDIQYFDKLLVDVDESTLSPEEQKERKIMKLLLKIKNGTPPMRKAALRQITDKAREFGAGPLFNQILPLLMSPTLEDQERHLLVKVIDRILYKLDDLVRPYVHKILVVIEPLLIDEDYYARVEGREIISNLAKAAGLATMISTMRPDIDNMDEYVRNTTARAFAVVASALGIPSLLPFLKAVCKSKKSWQARHTGIKIVQQIAILMGCAILPHLRSLVEIIEHGLVDEQQKVRTISALAIAALAEAATPYGIESFDSVLKPLWKGIRQHRGKGLAAFLKAIGYLIPLMDAEYANYYTREVMLILIREFQSPDEEMKKIVLKVVKQCCGTDGVEANYIKTEILPPFFKHFWQHRMALDRRNYRQLVDTTVELANKVGAAEIISRIVDDLKDEAEQYRKMVMETIEKIMGNLGAADIDHKLEEQLIDGILYAFQEQTTEDSVMLNGFGTVVNALGKRVKPYLPQICGTVLWRLNNKSAKVRQQAADLISRTAVVMKTCQEEKLMGHLGVVLYEYLGEEYPEVLGSILGALKAIVNVIGMHKMTPPIKDLLPRLTPILKNRHEKVQENCIDLVGRIADRGAEYVSAREWMRICFELLELLKAHKKAIRRATVNTFGYIAKAIGPHDVLATLLNNLKVQERQNRVCTTVAIAIVAETCSPFTVLPALMNEYRVPELNVQNGVLKSLSFLFEYIGEMGKDYIYAVTPLLEDALMDRDLVHRQTASAVVQHMSLGVYGFGCEDSLNHLLNYVWPNVFETSPHVIQAVMGALEGLRVAIGPCRMLQYCLQGLFHPARKVRDVYWKIYNSIYIGSQDALIAHYPRIYNDDKNTYIRYDLDYIL
5 | binds | HnRNP L (protein, UniProt Q8R081 1-586) MSRRLLPRAEKRRRRLEQRQQPDEQLRRAGAMVKMAAAGGGGGGGRYYGGGNEGGRAPKRLKTENAGDQHGGGGGGGSGAAGGGGGENYDDPHKTPASPVVHIRGLIDGVVEADLVEALQEFGPISYVVVMPKKRQALVEFEDVLGACNAVNYAADNQIYIAGHPAFVNYSTSQKISRPGDSDDSRSVNSVLLFTILNPIYSITTDVLYTICNPCGPVQRIVIFRKNGVQAMVEFDSVQSAQRAKASLNGADIYSGCCTLKIEYAKPTRLNVFKNDQDTWDYTNPNLSGQGDPGSNPNKRQRQPPLLGDHPAEYGGPHGGYHSHYHDEGYGPPPPHYEGRRMGPPVGGHRRGPSRYGPQYGHPPPPPPPPDYGPHADSPVLMVYGLDQSKMNCDRVFNVFCLYGNVEKVKFMKSKPGAAMVEMADGYAVDRAITHLNNNFMFGQKMNVCVSKQPAIMPGQSYGLEDGSCSYKDFSESRNNRFSTPEQAAKNRIQHPSNVLHFFNAPLEVTEENFFEICDELGVKRPTSVKVFSGKSERSSSGLLEWDSKSDALETLGFLNHYQMKNPNGPYPYTLKLCFSTAQHAS
6 | binds | SF3A1 (protein, UniProt Q8K4Z5 1-791) MQAGPVQAVPPPPPVATESKQPIEEEASSKEDPTPSKPVVGIIYPPPEVRNIVDKTASFVARNGPEFEARIRQNEINNPKFNFLNPNDPYHAYYRHKVSEFKEGKAQEPSAAIPKVMQQQQQATQQQLPQKVQAQVIQETIVPKEPPPEFEFIADPPSISAFDLDVVKLTAQFVARNGRQFLTQLMQKEQRNYQFDFLRPQHSLFNYFTKLVEQYTKILIPPKGLFSKLKKEAENPREVLDQVCYRVEWAKFQERERKKEEEEKEKERVAYAQIDWHDFVVVETVDFQPNEQGNFPPPTTPEELGARILIQERYEKFGESEEVEMEVESDEEDQEKAEETPSQLDQDTQVQDMDEGSDDEEEGQKVPPPPETPMPPPLPPTPDQVIVRKDYDPKASKPLPPAPAPDEYLVSPITGEKIPASKMQEHMRIGLLDPRWLEQRDRSIREKQSDDEVYAPGLDIESSLKQLAERRTDIFGVEETAIGKKIGEEEIQKPEEKVTWDGHSGSMARTQQAAQANITLQEQIEAIHKAKGLVPEDDTKEKIGPSKPNEIPQQPPPPSSATNIPSSAPPITSVPRPPAMPPPVRTTVVSAVPVMPRPPMASVVRLPPGSVIAPMPPIIHAPRINVVPMPPAAPPIMAPRPPPMIVPTAFVPAPPVAPVPAPAPMPPVHPPPPMEDEPPSKKLKTEDSLMPEEEFLRRNKGPVSIKVQVPNMQDKTEWKLNGQGLVFTLPLTDQVSVIKVKIHEATGMPAGKQKLQYEGIFIKDSNSLAYYNMASGAVIHLALKERGGRKK
